The values below come from PubChem BioAssay AID256 (DTP/NCI, 2004).

The list shows only some results of the screen, not a fair sample: it gathers tests that were run many times, whatever their T/C, doses with no T/C, and many T/C values between a quarter and a half above the control. Other doses and runs of a compound stand elsewhere. T/C: endpoint of the treated group in % of that of the vehicle group. Some doses have a count of surviving animals in place of a T/C: the source files T/C as zero there, which appears to mark a toxic dose or a test without result, not a measured value. Some doses without a T/C left all or most animals alive at the check, yet need not have been tolerated: the source hardly ever lists a survival T/C far under the control, and the zero likely stands for such cases as well. Survivors were counted at the toxicity check, usually on the fifth day, unless a day is given; later deaths do not show. Schedules are NCI's codes, read here as Q, the interval in days (D) or hours (H), X, the number of doses. Some doses were run more than once; the results are listed from low to high. Some structures stand for samples that the source files as different forms (salt, stereo form or complex); doses refer to the form tested. Where survival is the endpoint, this PubChem deposit counts one and a half times the control or more as active, and values a quarter to a half above the control carry no call in these data; other NCI protocols may use other cut-offs. Marks such as (2×) stand for listed records that agree.

For the assay, the system named is CD2F1 mice, L1210 leukemia ip, survival T/C. The assay can be described thus: NCI In Vivo Anticancer Drug Screen. Data for tumor model L1210 Leukemia (intraperitoneal) in CD2F1 (CDF1) mice. The settings on record: higher T/C = longer survival. Summed up: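 Read-out first: treated-group measurement over vehicle-control measurement, expressed as a ratio. Animals bore a transplanted tumor line and were dosed with compound or vehicle.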

Setting [1] is: T/C endpoint: mean survival time, dose: 400.0 mg/kg/injection, schedule: Q04DX003 (ip), vehicle: saline with Tween-80.
The mark [2] stands for this setting: T/C endpoint: mean survival time, dose: 200.0 mg/kg/injection, schedule: Q01DX001 (ip), vehicle: saline with Tween-80.
Setting [3] is: T/C endpoint: mean survival time, dose: 400.0 mg/kg/injection, schedule: Q01DX001 (ip), vehicle: saline with Tween-80.
Where [4] appears, read: T/C endpoint: mean survival time, dose: 200.0 mg/kg/injection, schedule: Q01DX001 (ip), vehicle: saline.
Where [5] appears, read: T/C endpoint: mean survival time, dose: 400.0 mg/kg/injection, schedule: Q01DX001 (ip), vehicle: saline.
[6] abbreviates: T/C endpoint: mean survival time, dose: 400.0 mg/kg/injection, schedule: Q01DX009 (ip), vehicle: saline with Tween-80.
Setting [7] is: T/C endpoint: mean survival time, dose: 200.0 mg/kg/injection, schedule: Q01DX009 (ip), vehicle: saline with Tween-80.
[8] abbreviates: T/C endpoint: mean survival time, dose: 200.0 mg/kg/injection, schedule: Q04DX002 (ip), vehicle: saline with Tween-80.
[9] abbreviates: T/C endpoint: mean survival time, dose: 400.0 mg/kg/injection, schedule: Q04DX002 (ip), vehicle: saline with Tween-80.
Where [10] appears, read: T/C endpoint: mean survival time, dose: 150.0 mg/kg/injection, schedule: Q01DX001 (ip), vehicle: saline.
Where [11] appears, read: T/C endpoint: mean survival time, dose: 300.0 mg/kg/injection, schedule: Q01DX001 (ip), vehicle: saline.

Regarding `CCCCCCCCCCCCCCCCCCOCC(COP(=O)([O-])OCC[N+](C)(C)C)OC` (stereo not given), the survivor count (T/C endpoint: median survival time, dose: 100.0 mg/kg/injection, schedule: Q01DX009 (ip), vehicle: suspension in saline) is 0 of 6.
With `CC(C)=CC(C)OC(=O)N(C)C` (stereo not given), the survivor count under setting [1] is 1 of 3.
Regarding `COc1ccc(N2CSC(=S)N(c3ccc(OC)cc3)C2)cc1`, the survivor count runs as follows: (T/C endpoint: mean survival time, dose: 200.0 mg/kg/injection, schedule: Q04DX003 (ip), vehicle: other) 6 of 6; (T/C endpoint: mean survival time, dose: 400.0 mg/kg/injection, schedule: Q04DX003 (ip), vehicle: other) 6 of 6.
Turning to `O=C(CCCCCCC(=O)ON1C(=O)CCC1=O)ON1C(=O)CCC1=O`, for the setting “T/C endpoint: median survival time, dose: 400.0 mg/kg/injection, schedule: Q01DX009 (ip), vehicle: saline with Tween-80”, the survivor count is 3 of 6.
As for `CCOC(OCC)c1nc(N)nc(N)c1-c1ccc(Cl)c(Cl)c1`, under “T/C endpoint: mean survival time, dose: 89.0 mg/kg/injection, schedule: Q01DX009 (ip), vehicle: other”, the T/C was 131 % of control.
As for `CC1(C)N=C(N)N=C(N)N1c1ccc(OCCCCNC(=O)Nc2cccc(S(=O)(=O)F)c2)c(Cl)c1`, the survivor count is recorded as 0 of 6 under setting [2] and 0 of 6 under setting [3].
For the compound `C[n+]1c(-c2cc(C(F)(F)F)cc(C(F)(F)F)c2)c2cc(N)ccc2c2ccc(N)cc21`, the survivor count (T/C endpoint: mean survival time, dose: 200.0 mg/kg/injection, schedule: Q01DX005 (ip), vehicle: saline with Tween-80) is listed as 6 of 6.
On to `N#C[S-].N#C[S-].[Au+3].[Au+3].[CH3-].[CH3-].[CH3-].[CH3-]`, for which the survivor count under setting [1] was 0 of 6.
With `COc1ccccc1C(=Nc1ccccc1)N(O)c1ccccc1`, the survivor count by setting is: (T/C endpoint: mean survival time, dose: 18.8 mg/kg/injection, schedule: Q01DX001 (ip), vehicle: saline) 1 of 6; (T/C endpoint: mean survival time, dose: 37.5 mg/kg/injection, schedule: Q01DX001 (ip), vehicle: saline) 1 of 6; (T/C endpoint: mean survival time, dose: 75.0 mg/kg/injection, schedule: Q01DX001 (ip), vehicle: saline) 0 of 6; (T/C endpoint: mean survival time, dose: 100.0 mg/kg/injection, schedule: Q01DX001 (ip), vehicle: saline) 3 of 6; under setting [4], 1 of 6; under setting [5], 0 of 6.
In the case of `OC(c1ccccc1)(c1ccccc1)c1cc2ccccc2[nH]1`, the survivor count under setting [2] was 5 of 6.
With `COc1ccc(NCC(=O)O)c([N+](=O)[O-])c1`, the survivor count under setting [1] is 6 of 6.
Consider `COc1cccc2c1C(=O)c1c(O)c3c(c(O)c1C2=O)C[C@@](O)(C(=O)CN1CCOCC1)C[C@@H]3OC1CC(N)C(O)C(C)O1` (stereo not given in full), for which the survivor count runs as follows: (T/C endpoint: mean survival time, dose: 3.13 mg/kg/injection, schedule: Q04DX003 (ip), vehicle: water) 6 of 6; (T/C endpoint: mean survival time, dose: 100.0 mg/kg/injection, schedule: Q04DX003 (ip), vehicle: water) 6 of 6.
Regarding `Nc1nc(N)c2c(=O)c(CNc3ccc(C(=O)NC(CCC(=O)O)C(=O)O)cc3)c[nH]c2n1` (stereo not given), under “T/C endpoint: mean survival time, dose: 8.0 mg/kg/injection, schedule: Q01DX005 (ip), vehicle: sodium bicarbonate”, the survivor count is recorded as 6 of 6.
Take `O=C(O)c1cccc([N+](=O)[O-])c1C(=O)c1ccccc1`: the survivor count under setting [6] was 0 of 6.
On to `Cc1cc(N(CCI)CCI)ccc1N=Nc1ccccc1C(=O)O`, for which, where the note is “T/C endpoint: mean survival time, dose: 50.0 mg/kg/injection, schedule: Q01DX009 (ip), vehicle: Klucel (hydroxypropylcellulose) (HPC)”, the T/C is 132 % of control. Also, the survivor count (T/C endpoint: mean survival time, dose: 100.0 mg/kg/injection, schedule: Q01DX009 (ip), vehicle: Klucel (hydroxypropylcellulose) (HPC)) is 3 of 3 and the survivor count (T/C endpoint: mean survival time, dose: 200.0 mg/kg/injection, schedule: Q01DX009 (ip), vehicle: Klucel (hydroxypropylcellulose) (HPC)) is 3 of 3.
As for `O=c1oc2c(ccc3ccccc32)c(O)c1-c1ccccc1`, the survivor count under setting [7] is 0 of 3.
Consider `COC1(c2ccco2)OC1(C)C` (stereo not given), for which the survivor count is reported as 0 of 6 (T/C endpoint: mean survival time, dose: 100.0 mg/kg/injection, schedule: Q04DX003 (ip), vehicle: saline sonified); 0 of 6 (T/C endpoint: mean survival time, dose: 200.0 mg/kg/injection, schedule: Q04DX003 (ip), vehicle: saline sonified); 0 of 6 (T/C endpoint: mean survival time, dose: 400.0 mg/kg/injection, schedule: Q04DX003 (ip), vehicle: saline sonified).
Take `Cc1ccc(C)c(NC(=O)Oc2ccc(F)cc2)c1`: the T/C was 86, 91, 97 % of control (2×) (T/C endpoint: mean survival time, dose: 100.0 mg/kg/injection, schedule: Q04DX002 (ip), vehicle: saline with Tween-80); 86, 91, 94, 97 % of control under setting [8]; 94 and 98 % of control under setting [9]. The survivor count runs as follows: under setting [8], 3 of 3; under setting [9], 3 of 3.
As for `O=S(=O)(F)c1ccc(O)cc1`, the survivor count by setting is: under setting [2], 3 of 6; under setting [8], 1 of 3 and 3 of 6; under setting [9], 0 of 3 and 0 of 6.
With `CC(C)N1CCc2cc3c(cc2C1)OCO3`, the survivor count runs as follows: under setting [10], 2 of 6; under setting [4], 0 of 6; under setting [11], 0 of 6; under setting [5], 0 of 6.
For the compound `CC(=O)/C=C(\C)OC1CCCCC1`, the survivor count (T/C endpoint: mean survival time, dose: 400.0 mg/kg/injection, schedule: Q01DX009 (ip), vehicle: saline) was 3 of 6.
Regarding `Cc1cc(C)c(S(=O)(=O)F)cc1C(=O)O`, the survivor count reads like this: under setting [3], 3 of 6; under setting [6], 1 of 3.
With `O[C@@H](c1ccccc1)[C@@H](c1ccccc1)N1CCCCC1`, under setting [5], the survivor count is given as 0 of 6.
Take `OCC1OC(n2cnc3c(NO)nc(NO)nc32)C(O)C1O` (stereo not given): the T/C (T/C endpoint: median survival time, dose: 12.0 mg/kg/injection, schedule: Q01DX009 (ip), vehicle: saline) is 130 % of control and the T/C (T/C endpoint: median survival time, dose: 24.0 mg/kg/injection, schedule: Q01DX009 (ip), vehicle: saline) is 146 % of control.
For the compound `COc1ccc2nc3cc(Cl)ccc3c(Nc3ccc(NC(C)=O)cc3)c2n1`, the survivor count by setting is: (T/C endpoint: mean survival time, dose: 200.0 mg/kg/injection, schedule: Q01DX009 (ip), vehicle: other) 3 of 6; (T/C endpoint: mean survival time, dose: 400.0 mg/kg/injection, schedule: Q01DX009 (ip), vehicle: other) 2 of 6.
In the case of `CN(C)/C=C/C#N`, the survivor count runs as follows: under setting [10], 0 of 6; under setting [11], 0 of 6.
Take `C=C1COC(O)(C2OCOC(C3CC(=O)NC(=O)C3)C2O)C1C` (stereo not given): the T/C is 133 % of control (T/C endpoint: median survival time, dose: 16.0 micrograms/kg/injection, schedule: Q01DX009 (ip), vehicle: water); 133 and 135 % of control (T/C endpoint: median survival time, dose: 32.0 micrograms/kg/injection, schedule: Q01DX009 (ip), vehicle: water). Moreover, the survivor count (T/C endpoint: median survival time, dose: 64.0 micrograms/kg/injection, schedule: Q01DX009 (ip), vehicle: saline) is 4 of 6; the survivor count (T/C endpoint: median survival time, dose: 64.0 micrograms/kg/injection, schedule: Q01DX009 (ip), vehicle: water) was 2 of 6 and 3 of 6; the survivor count (T/C endpoint: median survival time, dose: 128.0 micrograms/kg/injection, schedule: Q01DX009 (ip), vehicle: water) is 0 of 6.
Regarding `CCCNCC(=O)O[C@]1(CC)C(=O)OCc2c1cc1n(c2=O)Cc2cc3ccccc3nc2-1`, the T/C reads like this: (T/C endpoint: median survival time, dose: 7.5 mg/kg/injection, schedule: Q04DX002 (ip), vehicle: saline) 138 % of control; (T/C endpoint: median survival time, dose: 15.0 mg/kg/injection, schedule: Q04DX002 (ip), vehicle: saline) 127 and 137 % of control.
Regarding `C/C=C/C[P+](C)(c1ccccc1)c1ccccc1`, the survivor count is, setting by setting: (T/C endpoint: mean survival time, dose: 12.5 mg/kg/injection, schedule: Q01DX009 (ip), vehicle: saline) 0 of 3; (T/C endpoint: mean survival time, dose: 25.0 mg/kg/injection, schedule: Q01DX009 (ip), vehicle: saline) 0 of 3; (T/C endpoint: mean survival time, dose: 50.0 mg/kg/injection, schedule: Q01DX009 (ip), vehicle: saline with Tween-80) 0 of 3; (T/C endpoint: mean survival time, dose: 50.0 mg/kg/injection, schedule: Q01DX009 (ip), vehicle: saline) 0 of 3; (T/C endpoint: mean survival time, dose: 100.0 mg/kg/injection, schedule: Q01DX009 (ip), vehicle: saline with Tween-80) 0 of 3; under setting [7], 0 of 3.
In the case of `COc1ccc(NC(=S)/C(=C(\[O-])c2ccc([N+](=O)[O-])cc2)[n+]2ccc(C(C)C)cc2)cc1`, under setting [6], the survivor count was 6 of 6.
